# PubChem BioAssay AID540256 (National Center for Advancing Translational Sciences (NCATS), 2011)
# Among all 300,000 compounds or so, about 3,700 (1.2%) were called active. Inconclusive results, whose numbers are uncertain, are shown with a selection of clear calls. The call rests on the fitted dose curve; tested in HEK293 cells. A potency beside an inconclusive call is a rough fit, not a confirmed value.
# Assay: qHTS for Inhibitors of binding or entry into cells for Lassa Virus; further: nearly all actives have a fitted effect of over 50% in size
# Conditions: Lassa virus pseudotype entry inhibition, cell reporter; series mostly up to 37.9 µM
# Potency means the concentration at half of the fitted maximal effect.
row,Structure (SMILES),Potency
1,COc1ccc(NC(=O)CSc2nc3c(c(=O)n2-c2ccc(C)cc2)SCC3)c(OC)c1,"inconclusive: 4.47 µM [inhibitor, single point]"
2,COc1ccc(-c2cc(C(F)(F)F)c(C#N)c(SCC(=O)Nc3ccc(F)cc3)n2)cc1,inactive
3,Cc1ccc(NS(=O)(=O)c2ccc(Cl)s2)nc1,"inconclusive: 0.562 µM [inhibitor, full curve, poor fit]"
4,COCCn1c(SCc2nc3ccccc3s2)nc2ccccc21,inactive
5,Cc1cc(N2CCN(c3ccc([N+](=O)[O-])c4cccnc34)CC2)c2ccccc2n1,"inconclusive: 3.16 µM [inhibitor, full curve, poor fit]"
6,C/C(=N\NC(=O)C(c1ccccc1)c1ccccc1)c1ccccn1,"inconclusive: 10 µM [inhibitor, partial curve]"
7,CCN(CC)S(=O)(=O)c1ccc(S(=O)(=O)N2CCN(C(=O)c3ccco3)CC2)cc1,inactive
8,CCOC(=O)CCn1cc(F)c(=O)[nH]c1=O,inactive
9,CC(C)Oc1ccc(CNC(=O)CCCn2c(=O)c3cccn3c3ccccc32)cc1,inactive
10,O=C(CSc1nnnn1C1CCCC1)Nc1ccc2c(c1)OCO2,"inconclusive: 7.3 µM [activator, single point]"
11,Cc1ccc(C)n1-c1ccc(C(=O)/C=C/N(C)C)cc1,"inconclusive: 35.5 µM [inhibitor, single point]"
12,O=C1C(NS(=O)(=O)c2cccs2)=C(N2CCN(c3ccccc3)CC2)C(=O)c2ccccc21,"inconclusive: 15.8 µM [activator, partial curve, poor fit]"
13,Cc1cc(NC(=O)CCC(=O)N(c2ccccc2C)C(C(=O)NC2CCCC2)c2ccccc2)no1 (centres undefined),"inconclusive: 5.62 µM [activator, single point]"
14,CCN(c1cc(C)cc(C)c1)S(=O)(=O)c1nnc(NC(=O)c2cccs2)s1,"inconclusive: 35.5 µM [inhibitor, single point]"
15,Cc1nc(-c2ccc(NC(=O)c3ccccc3C)cc2)cs1,"inconclusive: 25.1 µM [inhibitor, single point]"
16,CN(CCO)c1c2c(nc3cc(-c4cccc(F)c4)nn13)CCCC2,inactive
17,c1cnc(SCCOc2ccc3c(c2)CCC3)nc1,"inconclusive: 2.31 µM [activator, partial curve]"
18,COC(=O)C(Cc1c[nH]c2ccccc12)NC(=O)COc1ccc(Cl)cc1Cl (centres undefined),inactive
19,Cc1ccccc1-n1nc(C)c2cc(C(=O)N3CCN(S(=O)(=O)c4ccc(Cl)cc4)CC3)sc21,inactive
20,COc1ccc(OC)c(NC(=O)c2cc(-c3cc(Cl)ccc3O)n[nH]2)c1,"inconclusive: 32.6 µM [inhibitor, single point]"
21,Cc1ccc(-c2ccc(=O)n(Cc3cc(C)ccc3C)n2)cc1,"inconclusive: 35.5 µM [inhibitor, single point]"
22,CCOC(=O)/C=c1/s/c(=C\c2c(OC)ccc3ccccc23)c(=O)n1CC(=O)NCC1CCCO1 (centres undefined),"inconclusive: 0.501 µM [activator, single point]"
23,C=C(C)CSc1nnc(-c2ccccc2)n1N,inactive

row,Structure (SMILES),Potency
1,CC1=Nc2cc(C(=O)NCCc3ccc(Cl)cc3)ccc2Sc2ccc(C)cc21,"inconclusive: 35.5 µM [inhibitor, single point]"
2,Cc1ccc(C)c(NC(=O)c2ccc3c(c2)N(Cc2ccc(F)cc2)C(=O)CS3=O)c1 (centres undefined),"inconclusive: 9.2 µM [inhibitor, partial curve, poor fit]"
3,C=C(C(C)=O)C(O)c1ccco1 (centres undefined),"inconclusive: 0.841 µM [activator, single point]"
4,Cn1nc(-c2ccccc2)c(-c2nc(-c3cccc(Cl)c3)no2)c1Cl,inactive
5,Cc1ccc(C(C)C)c(OCC(=O)Nc2cccc(NC(=O)c3ccco3)c2)c1,"inconclusive: 35.5 µM [inhibitor, single point]"
6,CC(=O)Nc1ccc(S(=O)(=O)NCCC(=O)N2CCC(Cc3ccccc3)CC2)cc1,"inconclusive: 4.47 µM [inhibitor, full curve]"
7,CC1(C)CC(=O)C(=CN2CCOCC2)C(=O)C1,inactive
8,Cn1c(=O)c2c(SCC(=O)N3CCc4ccccc43)nc(-c3ccccc3Cl)nc2n(C)c1=O,inactive
9,O=C(CSc1nnc(-c2ccc3c(c2)OCCO3)o1)N1CCCC1,"inconclusive: 11.2 µM [inhibitor, partial curve, poor fit]"
10,Cn1/c(=N/N=C/c2ccc(Cl)c([N+](=O)[O-])c2)sc2ccccc21,"inconclusive: 17.8 µM [activator, single point]"
11,CC(/C=C1\SC(=S)N(CCC(=O)Nc2ccc(O)cc2)C1=O)=C\c1ccccc1,"inconclusive: 35.5 µM [inhibitor, single point]"
12,Cc1ccc(NC(=S)NCc2ccccc2)cc1C,inactive
13,Cc1ccc(N)c(C(=O)c2ccc(Br)cc2)c1,inactive
14,Cc1nn(-c2ccccc2)c(Cl)c1CN(C(=O)CCl)c1ccc(Cl)cc1,"inconclusive: 25.1 µM [inhibitor, single point]"
15,Cc1cc(NC(=O)c2ccc(Cl)cc2)n(CCC#N)n1,"inconclusive: 1.26 µM [inhibitor, partial curve, poor fit]"
16,CCc1cc(C(=O)Nc2cc(S(=O)(=O)N(CC)CC)ccc2N2CCOCC2)sc1C,"inconclusive: 25.1 µM [inhibitor, partial curve, poor fit]"
17,COCCNC(=O)C(c1ccc(C)o1)N(C(=O)c1snc(C(N)=O)c1N)c1cc(C)cc(C)c1 (centres undefined),"inconclusive: 29.1 µM [inhibitor, single point]"
18,CC(C)(C)c1ccc(C(=O)Nc2nonc2-c2nc3ccccc3[nH]2)cc1,inactive
19,COc1ccc(CCNC(=O)C2COc3ccccc3O2)cc1OC (centres undefined),inactive
20,COc1ccc(C(=O)N/N=C/c2cccc3cccnc23)cc1,"inconclusive: 15.8 µM [inhibitor, single point]"
21,Cc1oc2ccc(O)c(CN(C)Cc3ccccc3)c2c1C(=O)Nc1cccc(C(F)(F)F)c1,"inconclusive: 12.6 µM [inhibitor, single point]"
22,Cc1ccc(C)c(NC(=S)NCCN(C2CCCCC2)C2CCCC2)c1,"inconclusive: 4.47 µM [inhibitor, full curve, poor fit]"
23,O=C(Nc1ccccc1)C1CCCCC1,inactive

row,Structure (SMILES),Potency
1,CC12CCC(C)(c3nc4ccccc4nc31)C2(C)C,inactive
2,O=C(NC1CCCCC1)C(c1cccs1)N(Cc1cccs1)C(=O)c1ccco1 (centres undefined),inactive
3,COc1ccc(-c2nnc(-c3cccnc3)o2)cc1OC,"inconclusive: 1.64 µM [activator, partial curve, poor fit]"
4,O=C(N/N=C/c1ccc(OC(=O)c2ccccc2Br)cc1)c1ccccn1,"inconclusive: 8.91 µM [inhibitor, partial curve, poor fit]"
5,CC(NC(=O)c1ccco1)c1nc(-c2ccc(C(C)(C)C)cc2)no1 (centres undefined),inactive
6,CCOC(=O)c1cnc(SC)nc1Oc1cccc(NS(=O)(=O)c2ccc(Cl)cc2)c1,"inconclusive: 10.3 µM [inhibitor, partial curve, poor fit]"
7,O=C(c1cc2ccccc2oc1=O)N1CCN(c2ncccn2)CC1,"inconclusive: 23.1 µM [activator, partial curve, poor fit]"
8,CCOC(=O)c1nc(C)sc1-c1ccnn1S(=O)(=O)c1ccc(C)cc1,"inconclusive: 35.5 µM [inhibitor, partial curve, poor fit]"
9,COC(=O)c1ccc2c(=O)n(Cc3ccco3)c(SCC(=O)Nc3ccccc3Cl)nc2c1,inactive
10,CSc1ccc(CNCCCSc2ncccn2)cc1,"inconclusive: 2.82 µM [activator, partial curve, poor fit]"
11,CCN1CCN(C(=O)c2ccc3c(Cl)c4c(nc3c2)CCCC4)CC1,"inconclusive: 0.794 µM [inhibitor, full curve, poor fit]"
12,CCOc1cc(N2CCOCC2)c(OCC)cc1NC(=O)COc1cccc2cccnc12,active: 6.31 µM
13,O=C(CN1CCC(C(=O)c2ccc(F)cc2)CC1)Nc1ccc(F)cc1,"inconclusive: 16.4 µM [inhibitor, partial curve, poor fit]"
14,O=C(OCC(=O)N1CCCCCC1)c1cccs1,"inconclusive: 5.01 µM [activator, partial curve]"
15,O=C(CNC(=O)c1ccc2c(c1)OCO2)Nc1ncccc1O,"inconclusive: 25.1 µM [inhibitor, single point]"
16,CCOC(=O)Cn1c2ccc(C)cc2c2nc(C)sc21,"inconclusive: 1.26 µM [inhibitor, single point]"
17,CC(=O)c1ccc(Oc2cc(C)nc(-n3nc(C)cc3C)n2)cc1,"inconclusive: 1.41 µM [inhibitor, full curve]"
18,COC(=O)c1c(-c2ccc(Cl)cc2)noc1N1CCN(c2ccc(OC)cc2)CC1,inactive
19,COc1ccc(CCNC(=O)c2ccc3ccccc3n2)cc1,"inconclusive: 35.5 µM [inhibitor, single point]"
20,COc1ccc(F)cc1S(=O)(=O)Nc1cc2c3c(c1)CCN3C(=O)CC2,"inconclusive: 3.55 µM [activator, partial curve, poor fit]"
21,Fc1cccc(COc2ccc(Nc3ncnc4sc(-c5cccs5)cc34)cc2Cl)c1,active: 15.8 µM
22,Cc1ccc(Nc2nc(-c3c(C)nc4ncccn34)cs2)cc1,"inconclusive: 35.5 µM [inhibitor, partial curve, poor fit]"
23,CC(C)CCOc1ncnc2c1sc1nc3c(cc12)CSC(C)(C)C3,"inconclusive: 35.5 µM [activator, single point]"

# Shown bar-delimited: part of the list above.
row | Structure (SMILES) | Potency
10 | CSc1ccc(CNCCCSc2ncccn2)cc1 | inconclusive: 2.82 µM [activator, partial curve, poor fit]
11 | CCN1CCN(C(=O)c2ccc3c(Cl)c4c(nc3c2)CCCC4)CC1 | inconclusive: 0.794 µM [inhibitor, full curve, poor fit]
12 | CCOc1cc(N2CCOCC2)c(OCC)cc1NC(=O)COc1cccc2cccnc12 | active: 6.31 µM
13 | O=C(CN1CCC(C(=O)c2ccc(F)cc2)CC1)Nc1ccc(F)cc1 | inconclusive: 16.4 µM [inhibitor, partial curve, poor fit]
14 | O=C(OCC(=O)N1CCCCCC1)c1cccs1 | inconclusive: 5.01 µM [activator, partial curve]
15 | O=C(CNC(=O)c1ccc2c(c1)OCO2)Nc1ncccc1O | inconclusive: 25.1 µM [inhibitor, single point]
